The whole screen tested about 330,000 compounds, of which about 7,700 (2.3%) were called active. Inconclusive results, whose numbers are uncertain, are shown with a selection of clear calls. Calls follow the shape of the dose curve; as a rule, active = well fitted inhibition curve with a large enough effect; inconclusive = small, poorly fitted or top-dose-only effect, or effect the other way; inactive = flat fitted curve, though single readings scatter. Where the call is inconclusive, the potency comes from a doubtful curve fit.
assay: qHTS screen for small molecules that inhibit ELG1-dependent DNA repair in human embryonic kidney (HEK293T) cells expressing luciferase-tagged ELG1; details: HEK293T ELG1-luciferase reporter, luminescence, 16 h, DNA damage induced by 5-fluorouridine; activity change, negative = inhibition: at 46.1 µM (top of the series); also: nearly all actives have a fitted effect of over 55% in size
Summary of the method: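 Step one: seed 2,000 cells per well. Step two: pin-transfer compound or DMSO alongside 5-fluorouridine. Step three: incubate 16 hr, 37 °C, 5% CO2. Step four: add ONE-Glo, wait 30 min, read luminescence.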
% is scaled to controls: 0 for no effect and ±100 for the full control effect; potency is read from the fitted curve at half-maximal effect.

Compound	activity change, negative = inhibition	Potency
CCCc1nn(C)c2c(=O)[nH]c(-c3cc(S(=O)(=O)N(CCO)CCO)ccc3OCC)nc12	inactive: 0%	
Clc1cccc(-c2nc(NCc3cccnc3)c3ccccc3n2)c1		active: 7.31 µM
Cc1nnsc1C(=O)NNc1ccc(C(C)C)cc1		inconclusive: 29.1 µM [activator, single point]
CCOc1ccccc1N(C)C(=O)c1ccc2c(=O)n3c(nc2c1)CCCCC3	inactive: -14.9%	
Cc1cc(/C=C(\C#N)C(=O)NCc2ccco2)c(C)n1C1CCCC1		inconclusive: 6.51 µM [activator, partial curve]
NS(=O)(=O)c1cccc(NC(=O)CCSc2ccccc2Cl)c1		inconclusive: 13 µM [activator, partial curve]
Cc1ccc(C(=O)N(C)CC(=O)Nc2ccc(N3CCOCC3)cc2)s1		inconclusive: 20.6 µM [activator, partial curve]
C[C@H](CO)N1C[C@H](C)[C@@H](CN(C)Cc2ccc(Cl)c(Cl)c2)Oc2c(NC(=O)C3CC3)cccc2C1=O		inconclusive: 23.1 µM [inhibitor, single point]
COc1cc(CNc2ccc3[nH]c(=O)[nH]c3c2)ccc1OCc1ccc(F)cc1		inconclusive: 2.31 µM [inhibitor, partial curve, poor fit]
N/C(=N\OC(=O)CCC1CCCC1)c1cccnc1		inconclusive: 20.6 µM [activator, single point]
Cc1ccc(NC2=Nc3ccccc3CS2)cc1		inconclusive: 2.31 µM [activator, partial curve]
CN(C)c1ccc(C2Nc3ccccc3C(=O)N2NS(C)(=O)=O)cc1 (centres undefined)		inconclusive: 29.1 µM [activator, single point]
COc1ccccc1OCC(=O)/C=C1/N(C)c2ccccc2C1(C)C		inconclusive: 29.1 µM [inhibitor, single point]
O=C(COc1ccccc1)Nc1ccc(N2CCCCC2)cc1		inconclusive: 18.3 µM [activator, partial curve]
Cc1nc2ccc(NC(=O)Cc3cccc(F)c3)cc2s1		inconclusive: 16.4 µM [activator, partial curve, poor fit]
Cc1ccc(C(=O)CSc2ncn[nH]2)cc1		inconclusive: 10 µM [activator, single point]
COc1cccc(CNc2nc(C(F)(F)F)nc3ccccc23)c1		active: 13 µM
CCc1noc(C)c1C(=O)Nc1cc(S(=O)(=O)N(CC)CC)ccc1N1CCOCC1		inconclusive: 6.51 µM [inhibitor, single point]
CN(C)S(=O)(=O)c1ccc(N2CCN(S(=O)(=O)c3ccc(F)cc3)CC2)c(Cl)c1		inconclusive: 2.59 µM [inhibitor, partial curve]
Cc1ccc2[nH]c(C)c(CC(=O)NCc3ccccc3)c2c1	inactive: -25.9%	
Cc1ccc(-c2nc(CNC(=O)c3cc(C)on3)cs2)cc1	inactive: -16.8%	
COc1cccc(CN2CC(C(=O)NCCC3=CCCCC3)CCC2=O)c1 (centres undefined)	inactive: 25.7%	

Compound	activity change, negative = inhibition	Potency
O=C(Nc1ccc2c(c1)OCO2)C1CC1(Cl)Cl (centres undefined)		inconclusive: 14.6 µM [activator, partial curve]
O=c1ccc(-c2nc3cc(Cl)ccc3n2Cc2ccccc2)c[nH]1		inconclusive: 20.6 µM [activator, partial curve, poor fit]
CCC(=O)N1CCc2cc(S(=O)(=O)CCC(=O)N3CCN(c4ccc(C(C)=O)cc4)CC3)ccc21		inconclusive: 18.3 µM [inhibitor, partial curve, poor fit]
Cc1nc2ccc(NC(=O)c3ccc(C)c(S(=O)(=O)N4CCOCC4)c3)cc2s1		inconclusive: 29.1 µM [inhibitor, single point]
CS(=O)(=O)c1ccc(Cl)c(NC(=O)CCN2C(=O)NC3(CCCC3)C2=O)c1	inactive: -0.22%	
COC(=O)c1ccc(NC(=O)c2cn(-c3ccccc3)nc2-c2ccncc2)cc1		inconclusive: 23.1 µM [inhibitor, partial curve, poor fit]
CN(C)CCN(Cc1cc2cc3c(cc2[nH]c1=O)OCO3)C(=S)NCC1CCCO1 (centres undefined)		inconclusive: 7.3 µM [activator, full curve, poor fit]
Cc1ccnc(N=Cc2nc(-c3ccccc3Br)oc2O)c1		inconclusive: 6.51 µM [activator, single point]
Cc1ccc(C(=O)Nc2ccc3c(c2)ncn3C)cc1		inconclusive: 4.11 µM [activator, partial curve, poor fit]
O=C(Nc1ccc(Cl)cc1Cl)NC1CCN(S(=O)(=O)c2ccc(F)cc2)CC1		inconclusive: 32.6 µM [inhibitor, partial curve, poor fit]
Cc1ccccc1C(=O)NCC(=O)O	inactive: 5.55%	
O=[N+]([O-])c1ccc(Oc2cccc3cccnc23)c(Cl)c1	inactive: 12.1%	
Cc1cc(NC(=O)c2ccc3c(c2)C(=O)N(C(C)(C)C)C3=O)no1		inconclusive: 9.2 µM [activator, partial curve]
Cc1ccc2cc(C)c(Sc3nnnn3-c3ccccc3)nc2c1		inconclusive: 18.4 µM [inhibitor, partial curve, poor fit]
CN=C1c2ccccc2CN1c1cccc(C(=O)OC)c1		inconclusive: 25.9 µM [activator, partial curve, poor fit]
CN(C)S(=O)(=O)c1cccc(C(=O)NCCc2ccccc2)c1		inconclusive: 2.06 µM [activator, partial curve]
O=C(O)c1ccc(S(=O)(=O)N2CCSCC2)cc1	inactive: -1.1%	
COc1ccc(C(=O)NC(=S)Nc2ccc(N3CCCC3)cc2)cc1OC	inactive: 26.5%	
COc1ccc(-c2noc(CNC(=O)CCN3C(=O)[C@H]4CC=CC[C@H]4C3=O)n2)cc1	inactive: 12.4%	
COc1ccc(C(=O)NC2CCN(C(=O)NCc3ccccc3)CC2)cc1	inactive: 2.78%	
CCc1c(C)nc2ncnn2c1N1CCC(C(=O)Nc2ccc(C)cc2)CC1		inconclusive: 18.4 µM [inhibitor, single point]
COCCc1ncc(CN2CCC(C(=O)Nc3cccc(-c4cscn4)c3)CC2)cn1		inconclusive: 4.61 µM [inhibitor, partial curve]

Entries from the list above with an aryl thioether with sulfur outside any ring (three):
Compound	activity change, negative = inhibition	Potency
NS(=O)(=O)c1cccc(NC(=O)CCSc2ccccc2Cl)c1		inconclusive: 13 µM [activator, partial curve]
Cc1ccc(C(=O)CSc2ncn[nH]2)cc1		inconclusive: 10 µM [activator, single point]
Cc1ccc2cc(C)c(Sc3nnnn3-c3ccccc3)nc2c1		inconclusive: 18.4 µM [inhibitor, partial curve, poor fit]
